Results from paper PMC5451130.
No constants are given. Whether binding was seen depends on the method and setting. In cells and extracts the contact can be indirect. Some binding calls cover weakened binding; strength is not graded here.

Chains of the proteins cited; added tags and fusions are not shown. Lines headed by an entry give the natural chain unless they say otherwise; changes in a name come on top. Residues count along the entry.
UniProt P08648: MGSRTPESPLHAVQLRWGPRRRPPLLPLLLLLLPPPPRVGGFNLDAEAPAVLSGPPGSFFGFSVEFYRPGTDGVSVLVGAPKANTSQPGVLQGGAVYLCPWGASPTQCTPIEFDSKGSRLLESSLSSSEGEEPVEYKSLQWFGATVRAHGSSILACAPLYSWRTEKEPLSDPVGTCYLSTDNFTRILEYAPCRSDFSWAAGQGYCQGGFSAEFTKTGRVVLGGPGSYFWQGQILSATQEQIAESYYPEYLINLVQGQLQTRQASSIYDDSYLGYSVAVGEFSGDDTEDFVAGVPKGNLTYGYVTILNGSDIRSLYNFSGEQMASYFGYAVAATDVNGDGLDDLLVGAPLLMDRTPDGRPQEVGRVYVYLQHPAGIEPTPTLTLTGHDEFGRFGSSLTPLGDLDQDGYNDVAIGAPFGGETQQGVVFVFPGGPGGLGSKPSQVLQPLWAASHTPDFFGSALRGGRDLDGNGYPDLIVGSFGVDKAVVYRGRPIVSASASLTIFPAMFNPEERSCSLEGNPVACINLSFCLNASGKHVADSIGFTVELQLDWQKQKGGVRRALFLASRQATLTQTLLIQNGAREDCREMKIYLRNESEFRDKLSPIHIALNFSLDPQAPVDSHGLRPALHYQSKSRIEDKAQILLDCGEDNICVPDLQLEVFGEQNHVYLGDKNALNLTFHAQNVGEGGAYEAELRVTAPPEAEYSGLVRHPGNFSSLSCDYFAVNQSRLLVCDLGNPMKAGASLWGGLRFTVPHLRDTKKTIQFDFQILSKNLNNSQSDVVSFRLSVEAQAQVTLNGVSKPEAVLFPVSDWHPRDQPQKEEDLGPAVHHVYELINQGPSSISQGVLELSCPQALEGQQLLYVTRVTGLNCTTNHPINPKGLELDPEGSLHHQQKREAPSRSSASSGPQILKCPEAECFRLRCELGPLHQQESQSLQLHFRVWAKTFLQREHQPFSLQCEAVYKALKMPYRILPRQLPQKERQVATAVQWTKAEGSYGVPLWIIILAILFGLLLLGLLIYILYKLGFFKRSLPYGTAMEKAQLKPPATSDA
UniProt P06756: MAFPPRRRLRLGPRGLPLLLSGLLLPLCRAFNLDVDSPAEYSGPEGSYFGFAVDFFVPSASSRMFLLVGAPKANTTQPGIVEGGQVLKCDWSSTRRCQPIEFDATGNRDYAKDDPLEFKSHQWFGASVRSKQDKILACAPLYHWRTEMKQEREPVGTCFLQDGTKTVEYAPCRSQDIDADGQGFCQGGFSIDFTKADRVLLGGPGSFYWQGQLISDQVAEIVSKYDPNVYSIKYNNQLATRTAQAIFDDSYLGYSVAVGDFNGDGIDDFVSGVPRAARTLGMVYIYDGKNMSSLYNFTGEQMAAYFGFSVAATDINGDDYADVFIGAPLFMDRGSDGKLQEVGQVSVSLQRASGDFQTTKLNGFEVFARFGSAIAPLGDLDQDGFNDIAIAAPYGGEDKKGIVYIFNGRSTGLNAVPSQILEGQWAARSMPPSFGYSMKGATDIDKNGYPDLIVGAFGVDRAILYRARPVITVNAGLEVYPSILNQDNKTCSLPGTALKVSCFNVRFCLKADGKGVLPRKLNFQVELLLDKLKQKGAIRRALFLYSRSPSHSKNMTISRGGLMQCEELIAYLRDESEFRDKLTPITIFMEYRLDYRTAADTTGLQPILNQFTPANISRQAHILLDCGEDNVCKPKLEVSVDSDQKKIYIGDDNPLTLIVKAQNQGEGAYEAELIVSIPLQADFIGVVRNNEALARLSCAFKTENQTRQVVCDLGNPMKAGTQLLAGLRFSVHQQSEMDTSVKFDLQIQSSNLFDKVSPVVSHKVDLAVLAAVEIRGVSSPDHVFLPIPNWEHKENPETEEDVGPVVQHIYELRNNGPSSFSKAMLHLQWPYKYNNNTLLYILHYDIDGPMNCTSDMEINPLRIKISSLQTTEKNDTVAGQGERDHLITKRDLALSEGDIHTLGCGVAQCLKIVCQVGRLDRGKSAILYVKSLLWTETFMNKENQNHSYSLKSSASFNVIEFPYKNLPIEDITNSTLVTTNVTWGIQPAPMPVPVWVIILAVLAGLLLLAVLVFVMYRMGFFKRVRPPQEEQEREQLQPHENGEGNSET
UniProt P35590, residues 22-1138: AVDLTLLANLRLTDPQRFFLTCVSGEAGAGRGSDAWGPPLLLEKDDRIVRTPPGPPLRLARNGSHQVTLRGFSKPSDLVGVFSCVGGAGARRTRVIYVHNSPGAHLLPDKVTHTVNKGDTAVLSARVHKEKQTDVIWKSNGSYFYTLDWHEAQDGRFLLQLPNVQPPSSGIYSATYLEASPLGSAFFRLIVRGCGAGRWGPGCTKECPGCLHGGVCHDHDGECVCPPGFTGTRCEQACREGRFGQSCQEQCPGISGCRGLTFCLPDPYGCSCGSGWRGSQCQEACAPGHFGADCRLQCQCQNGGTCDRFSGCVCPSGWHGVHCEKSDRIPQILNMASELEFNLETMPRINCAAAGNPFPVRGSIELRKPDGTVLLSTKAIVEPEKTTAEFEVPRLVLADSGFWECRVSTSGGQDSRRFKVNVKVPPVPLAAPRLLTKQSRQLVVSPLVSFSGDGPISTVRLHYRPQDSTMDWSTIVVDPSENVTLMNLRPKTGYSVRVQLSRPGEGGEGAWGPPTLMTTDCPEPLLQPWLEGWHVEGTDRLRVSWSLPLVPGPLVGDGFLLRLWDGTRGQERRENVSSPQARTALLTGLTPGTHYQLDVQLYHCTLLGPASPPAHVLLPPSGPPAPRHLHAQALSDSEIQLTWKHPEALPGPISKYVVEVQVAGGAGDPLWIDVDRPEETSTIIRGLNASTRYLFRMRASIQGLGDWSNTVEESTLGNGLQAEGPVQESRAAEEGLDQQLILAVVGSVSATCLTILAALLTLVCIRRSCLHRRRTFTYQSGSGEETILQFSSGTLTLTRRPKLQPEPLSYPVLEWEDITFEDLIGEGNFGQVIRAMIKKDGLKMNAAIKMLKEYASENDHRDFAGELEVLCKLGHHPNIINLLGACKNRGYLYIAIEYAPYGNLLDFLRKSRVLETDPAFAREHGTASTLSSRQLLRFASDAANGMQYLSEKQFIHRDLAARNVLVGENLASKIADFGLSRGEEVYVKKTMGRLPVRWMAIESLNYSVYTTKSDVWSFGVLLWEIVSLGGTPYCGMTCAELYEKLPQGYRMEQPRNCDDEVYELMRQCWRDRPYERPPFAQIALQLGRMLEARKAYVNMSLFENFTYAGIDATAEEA
UniProt Q02763, residues 23-1124: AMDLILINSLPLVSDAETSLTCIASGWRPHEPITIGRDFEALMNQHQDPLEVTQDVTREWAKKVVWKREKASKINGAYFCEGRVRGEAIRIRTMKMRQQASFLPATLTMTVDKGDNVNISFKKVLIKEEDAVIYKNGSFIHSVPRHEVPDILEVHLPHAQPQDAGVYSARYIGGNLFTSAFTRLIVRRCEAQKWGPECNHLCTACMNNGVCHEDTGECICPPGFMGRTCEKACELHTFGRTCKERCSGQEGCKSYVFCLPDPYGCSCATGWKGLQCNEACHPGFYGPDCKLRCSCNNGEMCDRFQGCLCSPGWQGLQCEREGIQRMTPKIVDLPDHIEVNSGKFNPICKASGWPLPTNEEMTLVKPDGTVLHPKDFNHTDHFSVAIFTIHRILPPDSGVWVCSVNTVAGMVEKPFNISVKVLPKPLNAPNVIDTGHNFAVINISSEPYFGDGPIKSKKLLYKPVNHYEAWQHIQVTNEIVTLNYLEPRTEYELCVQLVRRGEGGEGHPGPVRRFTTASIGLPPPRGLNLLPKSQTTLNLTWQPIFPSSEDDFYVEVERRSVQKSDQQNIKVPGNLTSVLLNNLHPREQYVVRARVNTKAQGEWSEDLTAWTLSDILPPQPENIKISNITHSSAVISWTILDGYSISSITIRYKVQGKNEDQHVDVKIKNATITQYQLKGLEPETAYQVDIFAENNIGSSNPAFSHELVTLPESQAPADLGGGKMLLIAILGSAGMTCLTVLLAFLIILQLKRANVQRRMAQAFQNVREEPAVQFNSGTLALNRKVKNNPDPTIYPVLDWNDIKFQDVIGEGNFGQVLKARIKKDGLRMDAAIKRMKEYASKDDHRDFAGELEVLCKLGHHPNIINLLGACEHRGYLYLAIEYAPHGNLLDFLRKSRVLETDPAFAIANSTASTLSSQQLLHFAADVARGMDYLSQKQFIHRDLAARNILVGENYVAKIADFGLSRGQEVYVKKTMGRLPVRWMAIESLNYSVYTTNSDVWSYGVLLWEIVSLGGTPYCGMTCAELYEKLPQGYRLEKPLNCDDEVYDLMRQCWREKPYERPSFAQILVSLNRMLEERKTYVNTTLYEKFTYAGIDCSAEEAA

Experiments:
[1] = molecular target: Full-length integrin α5ß1 (flag-tagged) (UniProt P08648); test: co-IP; transiently transfected HEK293 cells; integrins immunoprecipitated with anti-flag antibody; co-precipitating Tie receptors detected by western blot (anti-HA, anti-myc or anti-GFP)
[2] = molecular target: Full-length integrin αVß3 (flag-tagged) (UniProt P06756); test: as above

Substance	binding [1]	binding [2]
HA-tagged Tie1 receptor (from UniProt P35590 22-1138)	binds	binds
myc-tagged Tie2 receptor (from UniProt Q02763 23-1124)	–	binds
